Results: patent EP4847499A1, “HETEROCYCLIC COMPOUND FOR INDUCING DEGRADATION OF KRAS PROTEIN” (dated 2026)
The match of structure and compound is tentative.

How the values were obtained:
[1] = test system: human G12D mutant KRAS-positive colorectal cancer line GP2d tumor-bearing mice; test: Anti-tumor activity in GP2d tumor-bearing mice; conditions: 3 mg/kg, tail vein, once a week, twice in total; two weeks after grouping; GP2d subcutaneous tumor
Description: Test Example 3: Evaluation of anti-tumor activity in human G12D mutant KRAS-positive colorectal cancer line GP2d tumor-bearing mice
GP2d cells were cultured under the same conditions as in Test Example 2. The GP2d cells were collected and suspended in PBS, and a cell suspension prepared at 4.0 × 10^7 cells/mL with two equal volumes of VitroGel Hydrogel Matrix (from TheWell Bioscience) was subcutaneously inoculated into 4- to 5-week-old male nude mice (BALB/c-nu (nu/nu), from The Jackson Laboratory Japan, Inc.) in a volume of 100 µL. About two weeks after the inoculation, the mice were divided into groups so that all the groups had approximately the same tumor volume and body weight, and administration of a test compound was started on the next day. The study was conducted for 5 mice each of a vehicle control group and test compound administration groups. The test compounds were dissolved in a solvent containing ethanol (from FUJIFILM Wako Pure Chemical Corporation), a 5% glucose solution (from Otsuka Pharmaceutical), 1 M hydrochloric acid, a 50% solution of (2-hydroxypropyl)-β-cyclodextrin (HP-βCD) (from ROQUETTE), HCO-40 (from Nikko Chemicals Co., Ltd.), and 1 M sodium hydroxide solution at a liquid amount ratio of 4:84.4:1.1:1:9:0.5. The test compound or vehicle control was administered into the tail vein. The administration was performed once a week and twice in total. The tumor sizes and the body weights were measured twice a week. The tumor volumes were calculated using the following equation. [formula]
The tumor growth inhibition rate (%) by the test compound was calculated with the tumor volume of the test compound administration group on the previous day of the start of the administration taken as 100% inhibition and the tumor volumes of the vehicle groups two weeks after the day of grouping taken as 0% inhibition. In addition, when the tumor volume of a test compound administration group was smaller than the tumor volume on the previous day of the start of the administration, the tumor regression rate (%) by the test compound was calculated with the tumor volume on the previous day of the start of the administration taken as 0% regression and with the tumor volume 0 taken as 100% regression. The results for some test compounds of formula (I) and formula (I-I) are shown in a table below.

[2] = test system: human wild-type KRAS gene amplification-positive gastric cancer line MKN1; test: Non-anchorage-dependent cell growth inhibition, spheroid 3D cell culture (CellTiter Glo 2.0); conditions: read-out: Wild-type amplification (MKN1) IC50; MKN1, 3D spheroid, 6 days
Excerpt: (§1) Test Example 2: Evaluation of non-anchorage-dependent cell growth inhibitory effect on human G12V mutant KRAS-positive pancreatic cancer line PA-TU-8902, human G12D mutant KRAS-positive pancreatic cancer line PK-59, human G12C mutant KRAS-positive pancreatic cancer line MIA PaCa-2, human G12C mutant KRAS-positive lung cancer line NCI-H358, human G12D mutant KRAS-positive colorectal cancer line GP2d, human G13D mutant KRAS-positive colorectal cancer line LoVo, or human wild-type KRAS gene amplification-positive gastric cancer line MKN1 The non-anchorage-dependent cell growth inhibitory effect of test compounds was evaluated by spheroid 3D cell culture.
(§2) PA-TU-8902 cells or GP2d cells (ECACC, 95090714), Pk-59 cells (RIKEN BRC, RCB1901), MIA PaCa-2 cells (RIKEN BRC, RCB2094), NCI-H358 cells (ATCC, CRL-5807), LoVo cells (ATCC, CCL-229), or MKN1 cells (JCRB, JCRB0252) were seeded on low-cell-adhesive round bottom 384-well plates (Prime Surface: from Sumitomo Bakelite) at 36 µL/well to give 5 × 10^2 cells per well, and the PA-TU-8902 cells were cultured under the same conditions as in Test Example 1. The GP2d cells were cultured using DMEM medium containing 10% fetal bovine serum in the presence of 5% CO2 at 37°C. The PK-59 cells, MIA PaCa-2 cells, LoVo cells, NCI-H358 cells, or MKN1 cells were cultured using RPMI-1640 medium (from Sigma-Aldrich) containing 10% fetal bovine serum in the presence of 5% CO2 at 37°C.
(§3) The next day, the test compounds (10 points having final concentrations in the range of 10 µM to 0.03 nM) and DMSO, which was the solvent for the test compounds, as a negative control were diluted 100-fold with a fresh medium and were added at 4 µL to each well containing the PA-TU-8902 cells, PK-59 cells, MIA PaCa-2 cells, LoVo cells, NCI-H358 cells, or MKN1 cells. After culturing in the presence of 5% CO2 at 37°C for 6 days, CellTiter Glo 2.0 (from Promega) was added at 20 µL per well. After stirring with a plate mixer at room temperature for 1 hour, the luminescent signals were measured with ARVO X3 (from PerkinElmer).
(§4) With the signaling value in treatment with DMSO taken as a survival rate of 100% and with the signaling value in the medium alone without cells taken as a survival rate of 0%, the 50% inhibitory concentration (IC50) was calculated by Sigmoid-Emax model nonlinear regression analysis.

[3] = test system: human G12C mutant KRAS-positive lung cancer line NCI-H358; test: as above; conditions: read-out: G12C (NCI-H358) IC50; NCI-H358, 3D spheroid, 6 days
Excerpt: as §1, §2, §3, §4

[4] = test system: human G12C mutant KRAS-positive pancreatic cancer line MIA PaCa-2; test: as above; conditions: read-out: G12C (MIA PaCa-2) IC50; MIA PaCa-2, 3D spheroid, 6 days
Excerpt: as §1, §2, §3, §4

[5] = test system: human G12D mutant KRAS-positive pancreatic cancer line PK-59; test: as above; conditions: read-out: G12D (PK-59) IC50; PK-59, 3D spheroid, 6 days
Excerpt: as §1, §2, §3, §4

[6] = test system: human G13D mutant KRAS-positive colorectal cancer line LoVo; test: as above; conditions: read-out: G13D (LoVo) IC50, 3D spheroid, 6 days
Excerpt: as §1, §2, §3, §4

[7] = test system: human G12V mutant KRAS-positive pancreatic cancer line PA-TU-8902; test: as above; conditions: read-out: G12V (PA-TU-8902) IC50; PA-TU-8902, 3D spheroid, 6 days
Excerpt: as §1, §2, §3, §4

IC50 [2] [nM]	IC50 [3] [nM]	IC50 [4] [nM]	IC50 [5] [nM]	IC50 [6] [nM]	IC50 [7] [nM]	Compound	Anti-tumor activity: tumor regression rate [1] [% regression]	Anti-tumor activity: tumor growth inhibition rate [1] [% inhibition]
1.9	1.7	4.6	6.2	73	11	CCN1CCN(c2nc(N3CC[C@H]3C(N)=O)c3cc(C4CC4)c(-c4c(C)c(F)cc5[nH]ncc45)c(OCc4ccc(C(=O)N5CCC6(CCC(CCOc7cncc(N8CCC(=O)NC8=O)c7)CC6)CC5)cc4)c3n2)C[C@@H]1C	29	
2.1	1.5	1.8	5.1	33	8.9	Cc1c(F)cc2[nH]ncc2c1-c1c(C2CC2)cc2c(N3CC[C@H]3C(N)=O)nc(N3CCN(C)[C@@H](C)C3)nc2c1OCc1ccc(C(=O)N2CCC3(CCC(CC#Cc4cc(N5CCC(=O)NC5=O)ccn4)CC3)CC2)cc1		97
3.1	2.9	4.6	7.3	30	16	Cc1c(F)cc2[nH]ncc2c1-c1c(C2CC2)cc2c(N3CC[C@H]3C(N)=O)nc(OCC(C)(C)CN(C)C)nc2c1OCc1ccc(C(=O)N2CCC3(CCC(CCOc4cc(N5CCC(=O)NC5=O)ccn4)CC3)CC2)cc1		85
2.8	2.8	3.1	4.1	46	8.5	Cc1c(OCCC2CCC3(CC2)CCN(C(=O)c2ccc(COc4c(-c5c(C)c(F)cc6[nH]ncc56)c(C5CC5)cc5c(N6CC[C@H]6C(N)=O)nc(N6CCN(C)[C@@H](C)C6)nc45)cc2)CC3)cncc1N1CCC(=O)NC1=O	18	
